Source: PubChem BioAssay AID504467 (National Center for Advancing Translational Sciences (NCATS), 2011)
Among all 330,000 compounds or so, about 7,700 (2.3%) were called active. Inconclusive means that the source gave no clear call. Such entries were picked first, then a sample of the others. Calls come from the whole dose curve; as a rule, active = well fitted inhibition curve with a large enough effect; inconclusive = small, poorly fitted or top-dose-only effect, or effect the other way; inactive = flat fitted curve, though single readings scatter. A potency beside an inconclusive call is a rough fit, not a confirmed value.

Assay: qHTS screen for small molecules that inhibit ELG1-dependent DNA repair in human embryonic kidney (HEK293T) cells expressing luciferase-tagged ELG1; note: nearly all actives have a fitted effect of over 55% in size
Settings: HEK293T ELG1-luciferase reporter, luminescence, 16 h, DNA damage induced by 5-fluorouridine; activity change, negative = inhibition: at 46.1 µM (top of the series)
Summary of the method: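 Quantitative HTS, concentration-response format. 2,000 cells/well co-treated with 5-fluorouridine and compound, 16 hr in 5% CO2 at 37 °C; ONE-Glo luminescence read after 30 min.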
% is set by controls: 0 for no effect and ±100 for the full control effect; potency is the fitted concentration of half-maximal effect.

| Structure (SMILES) | Potency | activity change, negative = inhibition |
| --- | --- | --- |
| N#C/C(=C/c1cccs1)c1ccccn1 | inconclusive: 20.6 µM [activator, partial curve] |  |
| O=C(CCn1nc(-c2ccc(Cl)cc2)ccc1=O)N1CCN(c2ccc(F)cc2)CC1 |  | inactive: -14% |
| O=C(CN1CCN(c2ccc(O)cc2)CC1)Nc1cc(S(=O)(=O)N2CCOCC2)ccc1Cl | inconclusive: 25.9 µM [inhibitor, partial curve] |  |
| CCCn1c(C2CC(=O)N(c3cc(OC)ccc3OC)C2)nc2ccccc21 (configuration not stated) | inconclusive: 25.9 µM [inhibitor, partial curve, poor fit] |  |
| CC1CN(CC(=O)Nc2ccc(S(N)(=O)=O)cc2)CC(C)O1 (configuration not stated) |  | inactive: -0.707% |
| CCc1cc(=O)oc2cc(C)c(CN3CCCC(C)C3)c(O)c12 (configuration not stated) |  | inactive: 8.42% |
| Cc1ccccc1-n1c(SCc2c(C)noc2C)nnc1-c1c[nH]c2ccccc12 | inconclusive: 4.11 µM [activator, full curve, poor fit] |  |
| O=C(c1ccc(OC2CCN(Cc3ccccc3OC(F)F)CC2)cc1)N1CCCC1 |  | inactive: -0.409% |
| COc1ccc2c(c1)cc(C(=O)N[C@@H](CCSC)C(=O)N1CCC[C@H]1C(=O)O)n2C | inconclusive: 0.366 µM [activator, partial curve] |  |
| O=[N+]([O-])c1cccc(/C=C/c2ccccn2)c1 | inconclusive: 16.4 µM [activator, partial curve] |  |
| CNC(=O)COC(=O)c1ccccc1NC(=O)c1ccco1 | inconclusive: 6.51 µM [inhibitor, single point] |  |
| C/C(=N\NC(=S)NCCc1ccccc1)c1ccc(O)cc1O |  | inactive: -27.5% |
| CCn1c(C(=O)O)c(CC(=O)Nc2ccccc2OC)c2ccccc21 |  | inactive: -3.44% |
| Cc1cccc(C(=O)Oc2ccccc2/C=N/Nc2ccc([N+](=O)[O-])cc2)c1 | inconclusive: 32.6 µM [inhibitor, partial curve, poor fit] |  |
| Cc1ccc(C(=O)N/N=C\c2sccc2C)cn1 | inconclusive: 20.6 µM [activator, partial curve] |  |
| c1ccc(N2CCN(c3ncnc4scc(-c5cccs5)c34)CC2)cc1 | inconclusive: 13 µM [inhibitor, partial curve] |  |
| O=C(Nc1cc(Br)c(O)c(Br)c1)c1cccc(NC(=O)c2ccco2)c1 |  | inactive: -18.9% |
| O=C(c1ccccc1)c1ccccc1N/C=C/c1nnnn1-c1ccccc1 | inconclusive: 6.51 µM [inhibitor, partial curve, poor fit] |  |
| COc1ccc(CCNCc2cc(C)n(-c3ccc(OC)cc3)c2C)cc1 |  | inactive: -6.89% |
| CCc1ccccc1NC(=O)CC(=O)Nc1ccccc1CC | inconclusive: 1.3 µM [inhibitor, partial curve, poor fit] |  |
| C=CCn1cc(C(=O)NCC2CCCO2)c(=O)c2cc(S(=O)(=O)N3CCCCCC3)ccc21 (configuration not stated) | active: 10.3 µM |  |

A different layout for 3 compounds above:
Structure (SMILES) | Potency | activity change, negative = inhibition
N#C/C(=C/c1cccs1)c1ccccn1 | inconclusive: 20.6 µM [activator, partial curve] | 
O=C(CCn1nc(-c2ccc(Cl)cc2)ccc1=O)N1CCN(c2ccc(F)cc2)CC1 |  | inactive: -14%
COc1ccc2c(c1)cc(C(=O)N[C@@H](CCSC)C(=O)N1CCC[C@H]1C(=O)O)n2C | inconclusive: 0.366 µM [activator, partial curve] | 

The list continues:

| Structure (SMILES) | Potency | activity change, negative = inhibition |
| --- | --- | --- |
| COc1ccc(N=C2SCC(=O)N2Cc2ccccc2)cc1 | inconclusive: 29.1 µM [inhibitor, single point] |  |
| Cc1c(/C(O)=C2\C(=O)C(=O)N(CCN(C)C)C2c2ccccc2)cnn1-c1ccccc1 (configuration not stated) | inconclusive: 20.6 µM [activator, partial curve] |  |
| O=C(O)c1ccc(N/N=C/c2ccc3c(c2)OCO3)cc1 | inconclusive: 0.058 µM [activator, partial curve, poor fit] |  |
| O=C(OC1Cn2c(=O)ccc(=O)n2C1)c1ccc([N+](=O)[O-])cc1 |  | inactive: -5.25% |
| CC(=O)Nc1ccc(C(=O)Nc2cccc(-c3cnc4ccccc4n3)c2)cc1 | inconclusive: 11.6 µM [activator, partial curve, poor fit] |  |
| O=C(Nc1ncn[nH]1)c1cc(S(=O)(=O)Nc2cccc(C(F)(F)F)c2)ccc1Cl | inconclusive: 20.6 µM [activator, partial curve, poor fit] |  |
| CN1CCN(C(=O)CSc2cc(=O)n(C)c3ccccc23)CC1 | inconclusive: 23.1 µM [activator, partial curve] |  |
| COC(=O)c1ccccc1NC(=O)c1ccccc1N(C)S(=O)(=O)c1ccccc1 | inconclusive: 18.4 µM [inhibitor, single point] |  |
| CCCN1C(=O)c2ccc(C(=O)Nc3cc(C)ccc3O)cc2C1=O |  | inconclusive: 129% [activator] |
| CCOc1ccc(-c2nnc(-c3cccs3)o2)cc1 | inconclusive: 1.84 µM [activator, full curve] |  |
| Cc1ccc(S(=O)(=O)N2C[C@@H]3[C@H]4CC[C@H](C4)[C@@H]3[C@@H](C)[C@@H]2c2cn(Cc3ccccc3)c3ccc(F)cc23)cc1 |  | inactive: -4.74% |
| CCNc1nc(NCC)n2c(SCC(=O)c3ccc(C(C)C)cc3)nnc2n1 | inconclusive: 16.4 µM [inhibitor, partial curve, poor fit] |  |
| c1ccc(CN2CCN(c3nc(-c4ccccc4)nc(-n4ccnc4)n3)CC2)cc1 |  | inactive: -29.9% |
| C/C(=N\OCC(=O)Nc1ccc2c(c1)OCCO2)c1ccc2c(c1)OCCO2 |  | inactive: -16.5% |
| Cc1cccc(CSCCNC(=O)CN(c2cc(C)cc(C)c2)S(C)(=O)=O)c1 | inconclusive: 29.1 µM [inhibitor, single point] |  |
| CC(=O)O[C@H]1[C@H](O)[C@H](Oc2c(O)c(C)c3c4c2[C@@H](C)CC[C@@H]4[C@@H](C)C[C@H]3C=C(C)C)O[C@@H](C)[C@H]1O | inconclusive: 29.1 µM [activator, single point] |  |
| CC(C)Oc1ccc(/C(O)=C2/C(=O)C(=O)N(CCN3CCNCC3)C2c2ccc(C(C)C)cc2)cc1 (configuration not stated) | inconclusive: 20.6 µM [activator, partial curve, poor fit] |  |
| COc1cccc(CC(=O)Nc2ccc(S(=O)(=O)N3CCCCC3)cc2)c1 | inconclusive: 23.1 µM [inhibitor, partial curve] |  |
| CC(C)(C)c1csc(NC(=O)c2ccccc2O)n1 | inconclusive: 2.31 µM [activator, partial curve] |  |
| O=C(c1cc(COc2c(F)cccc2F)on1)N1CCC(c2ccccc2F)C1 (configuration not stated) | inconclusive: 20.6 µM [activator, partial curve] |  |
| CC1(C)CC(=O)c2cnc(NC(=O)Cc3ccc(Cl)cc3)nc2C1 |  | inactive: 12.9% |
